Drawing on PubChem BioAssay AID2685 (National Center for Advancing Translational Sciences (NCATS), 2010), this text covers cell number change and AC50 for 59 compounds.

The nature of this assay: qHTS Assay for Lipid Storage Modulators in Drosophila S3 Cells.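 On cell number change: cells counted by Cell Tracker Red CMTPX staining in the red channel.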 The conditions noted are these: BODIPY lipid droplet fluorescence, 18-24 h; for cell number change: measured here: cell count max response, cells fed with added oleic acid. An outline of the steps: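 Drosophila S3 cells got compounds at several concentrations plus oleic acid (400 uM solution). Laser-scanning cytometry with 488 nm excitation read lipid droplets at 500-530 nm and cells at 575-640 nm. Percent activity was relative to 20 uM Triacsin C.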
Background: In qHTS, concentration-response curves come from the screen itself.

Setting [1] is: measured here: lipid fluorescence (Fed channel) AC50, cells fed with added oleic acid.
[2] abbreviates: measured here: cell number channel AC50, cells fed with added oleic acid.

Some of the results follow. The main result of the screen is listed elsewhere. These columns were measured beside it and carry no call. Most of these compounds were active or inconclusive in the main read-out, so they are no random draw. Words in brackets tell the shape of the fitted curve; partial curves, single points and poor fits give uncertain potencies.

As a reminder, the AC50 is the midpoint of the concentration-response curve, whichever way the signal moves. For the compound `Cc1nn(-c2ccc(N3CCCCC3)nn2)c(C)c1CCC(=O)Nc1ccc(F)c(F)c1`, the cell number change came to 10.1%. Moreover, the half-maximal activity concentration (AC50) under setting [1] is 0.184 µM [falling, full curve, poor fit].
As for `CCOC(=O)Cn1c(=O)oc2cc(S(=O)(=O)NCCc3ccc(OCC)c(OCC)c3)ccc21`, the cell number change came out at 71%. For the same compound, under setting [1], the AC50 is 20.6 µM [rising, single point].
Consider `CCC(C)c1ccc(C2C3=C(Nc4nc(N)[nH]c(=O)c42)c2ccccc2C3=O)cc1` (stereo unspecified), for which the cell number change was -14.7%.
In the case of `C/C(=N\NC(=O)CNC(=O)c1cccc(F)c1)c1ccc2ccccc2c1`, the cell number change stood at 74.4%. The AC50 under setting [2] is 1.64 µM [falling, single point].
For the compound `COC(=O)[C@@H]1[C@@H](C#N)C2(c3ccccc3-c3ccccc32)N(c2ccc(Cl)cc2)N1C#N`, the cell number change is -74%. For the same compound, under setting [2], the AC50 is 23.1 µM [falling, single point]. Also, under setting [1], the half-maximal activity concentration (AC50) is 20.6 µM [falling, partial curve].
Regarding `COc1ccc(C(=O)NCC(=O)NCC2(N(C)C)CCCCC2)cc1OC`, the cell number change is -41.1%. In addition, the concentration at half-maximal activity (AC50) under setting [2] was 9.2 µM [falling, partial curve, poor fit]. Besides, the AC50 under setting [1] was 0.82 µM [rising, full curve, poor fit].
Consider `COc1ccc(N/N=C(/Oc2ccc([N+](=O)[O-])cc2)C(C)=O)cc1`, for which the cell number change was -47%. The AC50 under setting [2] is 20.6 µM [falling, single point]. Moreover, the concentration at half-maximal activity (AC50) under setting [1] was 18.4 µM [falling, single point].
As for `CN(C)C(CNS(=O)(=O)c1ccc(Cl)cc1)c1cccnc1` (stereo unspecified), the cell number change stood at 32.2%. Besides, the half-maximal activity concentration (AC50) under setting [2] was 0.92 µM [rising, full curve, poor fit]. Under setting [1], the AC50 is 1.16 µM [rising, full curve].
`O=C1CSC(c2ccccc2)N1CCc1ccccc1` (stereo unspecified): the cell number change is -5.84%. Further, the half-maximal activity concentration (AC50) under setting [1] was 5.8 µM [rising, single point].
Consider `Cc1ccc(C(=O)NC(C)c2ccc(-n3ccnc3)cc2)cc1S(=O)(=O)N1CCOCC1` (stereo unspecified), for which, under setting [2], the AC50 was 0.116 µM [rising, full curve, poor fit].
For `COc1ccc(NC(=O)c2cccc(S(=O)(=O)NCc3ccco3)c2)c(OC)c1`, the AC50 under setting [1] is 0.259 µM [rising, partial curve, poor fit].
On to `CC/C(=C\C(=O)c1ccncc1)Nc1ccc(O)cc1`, for which the cell number change was -14.9%.
On to `CCOc1ccc(OCC)c(NC(=O)C2CCCN(S(=O)(=O)c3ccc(C)cc3)C2)c1` (stereo unspecified), for which the cell number change came out at 19.7%. Moreover, the half-maximal activity concentration (AC50) under setting [1] was 18.4 µM [rising, single point].
Consider `O=C(Nc1ccc(Cl)cn1)c1cccnc1`, for which the cell number change worked out at 22.7%. Further, the AC50 under setting [1] was 6.51 µM [falling, single point].
For the compound `Cc1ccc(NC(=O)C2C3CCCCC32)cc1[N+](=O)[O-]` (stereo unspecified), the cell number change is -0.549%. In addition, the concentration at half-maximal activity (AC50) under setting [1] was 20.6 µM [rising, partial curve].
Regarding `O=C(NC1CCN(C(=S)Nc2ccccc2)CC1)C1CCCCC1`, the cell number change was found to be 5.41%. Also, under setting [1], the AC50 is 29.1 µM [rising, single point].
Consider `CCN1C=C(Cc2ccccc2C)C2=C(C1)C(c1ccccc1C)C(C#N)=C(N)O2` (stereo unspecified), for which the cell number change was -37.5%. Besides, the AC50 under setting [1] was 0.92 µM [rising, full curve, poor fit].
Turning to `COC(CNC(=O)c1cc(C)nn1-c1ccccc1)OC`, the cell number change was 109%. Under setting [2], the AC50 was 29.1 µM [rising, single point]. Further, the AC50 under setting [1] was 29.1 µM [rising, single point].
As to `O=C(O)CCC(=O)c1ccc(-c2ccccc2)cc1`, the cell number change is 12.4%. Further, the AC50 under setting [1] was 0.731 µM [falling, full curve, poor fit].
As for `CNc1sc(C(=O)c2cccs2)c(N)c1-c1nc2ccccc2s1`, the cell number change was -19.8%.
Same read-out and setting: for `CC(C)(C)OC(=O)NC(Cc1ccccc1)C(=O)N1CCC(C(=O)NCC(=O)Nc2ccc(F)cc2)CC1` (stereo unspecified) the value was -0.472%.
In the case of `CCOC(=O)c1ccc(NC=C2C(=O)OC3(CCCCC3)OC2=O)cc1`, the cell number change is -9.96%. For the same compound, the half-maximal activity concentration (AC50) under setting [1] was 6.51 µM [falling, single point].
Consider `O=C(Nc1cccc(-c2cccc(Cl)c2)c1)C1CCN(Cc2ccc(CO)o2)CC1`, for which the cell number change was -17.8%. In addition, the half-maximal activity concentration (AC50) under setting [1] is 29.1 µM [rising, single point].
With `CCc1ccc(NC(=O)CSc2nc3cc(C(=O)OC)ccc3c(=O)n2Cc2ccco2)cc1`, the cell number change is -29.7%. Further, the concentration at half-maximal activity (AC50) under setting [2] is 0.82 µM [falling, full curve, poor fit].
With `O=C(NCCS(=O)(=O)N1CCN(c2ccccc2F)CC1)c1cccs1`, the AC50 was 6.51 µM [rising, single point] under setting [2] and 2.91 µM [rising, single point] under setting [1].
For `O=C1CCN(Cc2ccc(Br)cc2)CCN1CCO`, the cell number change was found to be 5.39%.
With `Cc1ccc(C(=O)Nc2oc(-c3ccccc3)cc2C#N)cc1`, the cell number change turned out to be 1.23%. Also, under setting [1], the AC50 is 4.61 µM [rising, single point].
As to `CCOCCCNC(=S)N1CCN(c2nc(-c3ccccc3)cs2)CC1`, the cell number change was -42.9%. In addition, the half-maximal activity concentration (AC50) under setting [2] is 18.4 µM [falling, single point].
For `Oc1ccccc1/C=N/N1CCN(c2ccccn2)CC1`, the cell number change came to 9.07%. In addition, under setting [1], the AC50 was 0.58 µM [rising, single point].
For `Cc1cc(C(C)(C)C)cc(C)c1C(=O)O`, the cell number change is -47.7%. In addition, the AC50 under setting [2] is 16.4 µM [falling, single point]. Moreover, under setting [1], the AC50 is 18.4 µM [falling, partial curve, poor fit].
`CC(C)CN1C(=O)c2ccc(C(=O)Nc3ccccc3C(=O)O)cc2C1=O`: the cell number change is -36.2%. Further, under setting [2], the concentration at half-maximal activity (AC50) was 32.6 µM [falling, single point].
In the case of `O=C(COC(=O)c1n[nH]c2ccccc12)c1cccc(Br)c1`, the cell number change is 26.5%. Also, the AC50 under setting [1] is 29.1 µM [rising, single point].
`CCOC(=O)C1CCN(C(=O)COC(=O)c2ccc3[nH]c4c(c3c2)CCCC4)CC1`: the cell number change was -32.2%.
Take `COC(=O)c1[nH]c2ccccc2c1NC(=O)CN1CCN(Cc2ccc3c(c2)OCO3)CC1`: the cell number change was determined as 2.14%.
`O=c1[nH]c(/C=C\c2ccccc2F)nc(O)c1[N+](=O)[O-]`: the cell number change is 12.4%.
Turning to `CCCn1nnc(NC(=S)NC(=O)/C=C/c2ccc(Cl)cc2)n1`, the cell number change came to 20.7%. Further, the AC50 under setting [1] is 25.9 µM [rising, single point].
For the compound `O=C(NCC1COCCO1)c1ccc(OC2CCN(CCc3ccccc3)CC2)cc1` (stereo unspecified), the cell number change was -23.5%. The concentration at half-maximal activity (AC50) under setting [1] was 7.31 µM [rising, partial curve].
As to `CC(C)(C)[C@H]1C=C(C(=O)N2CCN(Cc3ccccc3)CC2)O[C@@H](OCCCCO)C1`, the cell number change was 5.33%. Besides, the AC50 under setting [1] is 6.51 µM [falling, single point].
With `CCCOc1ccc(/C=N/n2nnnc2N)cc1OC`, the cell number change was -41.8%. For the same compound, under setting [2], the half-maximal activity concentration (AC50) is 20.6 µM [falling, partial curve, poor fit]. The concentration at half-maximal activity (AC50) under setting [1] was 6.51 µM [falling, single point].
Take `COc1ccc(/C(C)=N/NC(=O)c2cc(-c3cccnc3)nc3ccccc23)cc1`: the cell number change is 23.8%. Further, the concentration at half-maximal activity (AC50) under setting [1] is 0.0259 µM [rising, full curve, poor fit].
On to `Cc1cc(C(=O)CN2C(=O)NC(c3ccccc3)(c3ccccc3)C2=O)c(C)n1Cc1ccco1`, for which the cell number change is -26.5%. For the same compound, the concentration at half-maximal activity (AC50) under setting [1] was 18.4 µM [falling, partial curve, poor fit].
`CNCc1cc(Cl)cc(OC)c1OC(C)C`: the cell number change was -10.6%. Also, under setting [1], the concentration at half-maximal activity (AC50) was 4.47 µM [falling, full curve, poor fit].
Consider `O=C(N/N=C/c1ccc(Cl)c([N+](=O)[O-])c1)c1cnccn1`, for which the cell number change was -0.0785%. Under setting [1], the half-maximal activity concentration (AC50) is 5.8 µM [falling, single point].
Regarding `O=C(Nc1nccs1)C(c1ccccc1)N1CCCC1` (stereo unspecified), the cell number change worked out at 14.6%. Besides, under setting [1], the AC50 was 0.00517 µM [falling, full curve, poor fit].
On to `CC(=O)Nc1ccc(NC(=O)N2CCCCC2)cc1`, for which the cell number change was -9.92%.
As to `Cc1ccc2[nH]c(=O)c(CN(Cc3cccs3)S(=O)(=O)c3ccc4c(c3)OCCO4)cc2c1`, the cell number change is -6.58%. Besides, the half-maximal activity concentration (AC50) under setting [1] is 18.4 µM [rising, single point].
As for `O=C1NCCN1Cc1cccc(Cl)c1`, the AC50 under setting [1] is 6.51 µM [rising, single point].
On to `CSc1ccccc1NC(=O)CN(C)C(=O)c1ccc2c(c1)OCCO2`, for which the cell number change was -20.9%. Moreover, the AC50 under setting [1] is 0.82 µM [falling, full curve, poor fit].
Turning to `CC(=O)Nc1ccc(S(=O)(=O)N/N=C/c2ccc(C)s2)cc1`, the AC50 was 0.092 µM [rising, partial curve, poor fit] under setting [2] and 5.8 µM [rising, single point] under setting [1].
In the case of `NNC(=O)CNc1ccccc1Cl`, the cell number change amounted to 6.92%. For the same compound, the AC50 under setting [1] is 0.517 µM [falling, full curve].
For the compound `O=C(Nc1nnc(C(F)(F)F)s1)c1c(F)cccc1F`, the cell number change was determined as 19%. Under setting [2], the AC50 is 3.66 µM [rising, full curve, poor fit]. The half-maximal activity concentration (AC50) under setting [1] was 0.164 µM [falling, full curve].
For `COc1ccc(CCNC(=O)CCCc2nnc3n(C)c(=O)c4sccc4n23)cc1OC`, the cell number change came to 10.4%. Also, the AC50 under setting [1] is 16.4 µM [rising, single point].
Take `Cc1noc(NS(=O)(=O)c2ccc(NC(=O)C34CC5CC(C3)CC(n3cnc(Cl)n3)(C5)C4)cc2)c1C`: the cell number change was -42.1%. Further, the half-maximal activity concentration (AC50) under setting [2] was 29.1 µM [falling, single point].
For the compound `Cc1cnc(C(=O)OC(C)C(=O)c2c(C)[nH]c3ccccc23)cn1` (stereo unspecified), the cell number change turned out to be 48.7%. Besides, the AC50 under setting [2] was 2.06 µM [rising, full curve]. Under setting [1], the AC50 was 2.59 µM [rising, full curve].
Regarding `COC(=O)C1=C(C(=O)OC)[C@@H]2Nc3ccccc3[C@@]23C[C@@H](C(=O)OC)N(C(C)=O)C3=N1`, the cell number change is -12.1%. In addition, the concentration at half-maximal activity (AC50) under setting [2] was 5.17 µM [falling, partial curve].
As to `CC(C)NCC(=O)NC12CC3CC(CC(C3)C1)C2`, the cell number change is -87.5%. The AC50 under setting [2] is 29.1 µM [falling, single point]. The concentration at half-maximal activity (AC50) under setting [1] was 20.6 µM [falling, single point].
With `COCCCNc1oc(-c2ccccc2OC)nc1C#N`, the cell number change came to 40%. The AC50 under setting [2] is 29.1 µM [rising, single point].
Turning to `CC1CCCCN1S(=O)(=O)c1cnc(Cl)c(Br)c1` (stereo unspecified), the cell number change was -8.57%. For the same compound, the half-maximal activity concentration (AC50) under setting [1] was 29.1 µM [falling, single point].
On to `CC(C)(C)c1csc(NC(=O)Cc2ccc(S(=O)(=O)N3CCOCC3)s2)n1`, for which the cell number change worked out at 19.3%. Under setting [1], the half-maximal activity concentration (AC50) was 32.6 µM [falling, single point].
